# Laboratory results: the supplement of paper PMC11732987, “Enantioselective OTUD7B fragment discovery through chemoproteomics screening and high-throughput optimisation” (Communications Chemistry, 2025)
# Chains of the proteins cited; added tags and fusions are not shown. Lines headed by an entry give the natural chain unless they say otherwise; changes in a name come on top. Residues count along the entry.
# UniProt Q9NX38: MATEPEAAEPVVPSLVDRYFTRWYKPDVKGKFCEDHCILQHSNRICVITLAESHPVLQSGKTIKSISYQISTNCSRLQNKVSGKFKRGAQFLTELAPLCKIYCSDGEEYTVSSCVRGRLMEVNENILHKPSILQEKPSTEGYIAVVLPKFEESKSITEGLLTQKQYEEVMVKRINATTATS
# UniProt P08183: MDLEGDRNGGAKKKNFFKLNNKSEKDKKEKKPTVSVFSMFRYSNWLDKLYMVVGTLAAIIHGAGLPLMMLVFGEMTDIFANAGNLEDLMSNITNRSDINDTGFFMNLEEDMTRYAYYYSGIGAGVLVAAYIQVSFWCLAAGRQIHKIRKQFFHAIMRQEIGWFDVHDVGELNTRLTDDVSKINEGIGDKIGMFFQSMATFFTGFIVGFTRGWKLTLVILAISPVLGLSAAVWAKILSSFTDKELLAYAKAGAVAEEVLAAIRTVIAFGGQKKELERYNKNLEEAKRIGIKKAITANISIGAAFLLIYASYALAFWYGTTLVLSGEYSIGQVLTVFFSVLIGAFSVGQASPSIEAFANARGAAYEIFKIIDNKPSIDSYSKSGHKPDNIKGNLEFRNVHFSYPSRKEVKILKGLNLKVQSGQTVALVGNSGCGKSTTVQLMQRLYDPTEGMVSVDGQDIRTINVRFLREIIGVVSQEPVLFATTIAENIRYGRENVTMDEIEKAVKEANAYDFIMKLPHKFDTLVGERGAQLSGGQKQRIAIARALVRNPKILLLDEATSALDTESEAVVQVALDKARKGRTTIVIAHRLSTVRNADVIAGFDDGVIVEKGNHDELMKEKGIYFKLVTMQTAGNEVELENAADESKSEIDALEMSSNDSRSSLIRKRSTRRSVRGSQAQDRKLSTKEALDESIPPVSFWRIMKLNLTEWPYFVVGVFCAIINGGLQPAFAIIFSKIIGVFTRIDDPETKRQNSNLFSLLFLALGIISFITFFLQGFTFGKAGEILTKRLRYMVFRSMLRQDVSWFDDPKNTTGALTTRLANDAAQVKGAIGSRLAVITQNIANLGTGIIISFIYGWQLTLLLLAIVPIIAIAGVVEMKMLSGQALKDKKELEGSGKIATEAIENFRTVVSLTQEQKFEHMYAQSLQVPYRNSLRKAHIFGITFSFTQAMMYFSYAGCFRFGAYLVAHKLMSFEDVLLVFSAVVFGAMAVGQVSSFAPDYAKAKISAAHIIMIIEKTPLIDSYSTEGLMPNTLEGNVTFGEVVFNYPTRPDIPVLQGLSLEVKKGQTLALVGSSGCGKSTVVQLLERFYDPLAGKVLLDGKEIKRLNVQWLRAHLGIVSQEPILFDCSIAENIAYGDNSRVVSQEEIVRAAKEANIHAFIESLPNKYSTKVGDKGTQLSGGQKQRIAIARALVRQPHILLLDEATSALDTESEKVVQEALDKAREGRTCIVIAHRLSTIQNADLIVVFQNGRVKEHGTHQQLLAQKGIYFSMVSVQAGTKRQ
# UniProt Q86V21, 4-24: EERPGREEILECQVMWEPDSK
# UniProt Q9UKU7: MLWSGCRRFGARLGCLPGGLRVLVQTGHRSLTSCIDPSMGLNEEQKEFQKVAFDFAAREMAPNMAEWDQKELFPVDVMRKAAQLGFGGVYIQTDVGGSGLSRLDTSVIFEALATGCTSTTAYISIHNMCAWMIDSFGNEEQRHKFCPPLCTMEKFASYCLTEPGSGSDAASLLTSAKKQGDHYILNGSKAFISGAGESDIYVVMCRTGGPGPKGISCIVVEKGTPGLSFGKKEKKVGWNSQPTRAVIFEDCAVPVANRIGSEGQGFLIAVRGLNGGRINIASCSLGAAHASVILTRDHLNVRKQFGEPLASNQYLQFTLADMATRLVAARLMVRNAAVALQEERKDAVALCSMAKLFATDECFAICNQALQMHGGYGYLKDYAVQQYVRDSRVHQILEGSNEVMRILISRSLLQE
# UniProt Q15057: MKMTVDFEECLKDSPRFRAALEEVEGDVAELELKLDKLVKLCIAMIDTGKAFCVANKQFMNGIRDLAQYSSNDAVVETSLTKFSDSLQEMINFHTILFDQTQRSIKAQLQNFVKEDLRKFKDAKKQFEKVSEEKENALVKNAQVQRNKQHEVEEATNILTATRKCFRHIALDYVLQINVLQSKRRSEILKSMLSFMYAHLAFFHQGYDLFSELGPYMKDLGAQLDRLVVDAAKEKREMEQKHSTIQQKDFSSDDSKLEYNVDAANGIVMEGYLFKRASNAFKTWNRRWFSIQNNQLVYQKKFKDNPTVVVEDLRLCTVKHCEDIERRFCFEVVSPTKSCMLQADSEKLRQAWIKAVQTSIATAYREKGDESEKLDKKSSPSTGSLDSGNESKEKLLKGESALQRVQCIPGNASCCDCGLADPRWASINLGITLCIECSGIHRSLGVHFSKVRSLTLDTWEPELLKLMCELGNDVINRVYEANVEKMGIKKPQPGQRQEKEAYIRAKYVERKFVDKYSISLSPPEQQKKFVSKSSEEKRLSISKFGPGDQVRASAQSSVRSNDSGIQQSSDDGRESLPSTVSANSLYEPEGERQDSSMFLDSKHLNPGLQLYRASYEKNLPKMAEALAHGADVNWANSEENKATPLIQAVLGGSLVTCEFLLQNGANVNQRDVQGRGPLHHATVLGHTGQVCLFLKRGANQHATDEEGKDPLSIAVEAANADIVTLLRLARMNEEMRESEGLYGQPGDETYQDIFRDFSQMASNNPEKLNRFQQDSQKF
# UniProt P42684, whole entry, looked up: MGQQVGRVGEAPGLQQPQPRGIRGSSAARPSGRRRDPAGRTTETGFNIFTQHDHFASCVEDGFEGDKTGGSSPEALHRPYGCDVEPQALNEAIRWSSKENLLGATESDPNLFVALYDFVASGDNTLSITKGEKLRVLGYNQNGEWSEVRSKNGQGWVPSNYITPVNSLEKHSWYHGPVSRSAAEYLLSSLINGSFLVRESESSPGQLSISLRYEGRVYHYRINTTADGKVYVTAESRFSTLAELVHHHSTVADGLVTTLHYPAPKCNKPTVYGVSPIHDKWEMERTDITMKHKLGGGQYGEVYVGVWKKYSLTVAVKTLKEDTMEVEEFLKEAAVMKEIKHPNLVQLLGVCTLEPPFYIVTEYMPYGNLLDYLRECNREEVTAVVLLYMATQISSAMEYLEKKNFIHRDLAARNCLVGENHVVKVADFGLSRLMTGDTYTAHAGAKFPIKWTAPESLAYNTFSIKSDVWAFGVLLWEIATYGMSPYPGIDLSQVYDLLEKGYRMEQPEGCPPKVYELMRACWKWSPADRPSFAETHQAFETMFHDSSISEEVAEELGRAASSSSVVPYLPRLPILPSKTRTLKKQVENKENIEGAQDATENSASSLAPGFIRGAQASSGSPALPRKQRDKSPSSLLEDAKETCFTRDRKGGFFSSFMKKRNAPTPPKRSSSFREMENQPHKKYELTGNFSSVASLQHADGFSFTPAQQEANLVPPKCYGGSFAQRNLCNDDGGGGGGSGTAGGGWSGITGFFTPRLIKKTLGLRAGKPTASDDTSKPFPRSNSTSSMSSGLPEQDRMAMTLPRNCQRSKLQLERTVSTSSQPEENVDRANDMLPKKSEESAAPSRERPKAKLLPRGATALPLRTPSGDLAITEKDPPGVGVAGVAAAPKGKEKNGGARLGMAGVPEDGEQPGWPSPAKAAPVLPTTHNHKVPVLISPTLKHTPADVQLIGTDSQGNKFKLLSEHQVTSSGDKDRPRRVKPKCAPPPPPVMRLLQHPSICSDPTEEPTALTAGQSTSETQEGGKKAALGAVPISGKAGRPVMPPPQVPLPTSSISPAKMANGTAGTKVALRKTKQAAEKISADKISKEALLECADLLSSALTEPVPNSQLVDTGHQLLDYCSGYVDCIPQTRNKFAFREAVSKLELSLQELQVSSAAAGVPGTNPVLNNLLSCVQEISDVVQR
# UniProt Q13685: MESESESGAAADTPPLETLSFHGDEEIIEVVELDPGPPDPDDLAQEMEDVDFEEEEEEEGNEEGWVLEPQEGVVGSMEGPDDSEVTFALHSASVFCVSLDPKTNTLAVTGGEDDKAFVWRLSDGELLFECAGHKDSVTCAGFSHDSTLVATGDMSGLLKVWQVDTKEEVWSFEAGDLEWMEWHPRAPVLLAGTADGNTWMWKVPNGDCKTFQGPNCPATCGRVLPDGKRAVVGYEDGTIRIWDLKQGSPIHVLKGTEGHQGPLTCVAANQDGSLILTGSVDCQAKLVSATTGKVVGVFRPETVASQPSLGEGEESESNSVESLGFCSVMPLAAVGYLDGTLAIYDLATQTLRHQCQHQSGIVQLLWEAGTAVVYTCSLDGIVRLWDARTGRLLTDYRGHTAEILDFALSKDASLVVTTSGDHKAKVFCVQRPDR
# UniProt Q9H7C9: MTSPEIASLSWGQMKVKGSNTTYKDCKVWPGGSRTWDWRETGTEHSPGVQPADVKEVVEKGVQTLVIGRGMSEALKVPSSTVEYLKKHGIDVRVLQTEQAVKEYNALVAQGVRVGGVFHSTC
# UniProt P49748: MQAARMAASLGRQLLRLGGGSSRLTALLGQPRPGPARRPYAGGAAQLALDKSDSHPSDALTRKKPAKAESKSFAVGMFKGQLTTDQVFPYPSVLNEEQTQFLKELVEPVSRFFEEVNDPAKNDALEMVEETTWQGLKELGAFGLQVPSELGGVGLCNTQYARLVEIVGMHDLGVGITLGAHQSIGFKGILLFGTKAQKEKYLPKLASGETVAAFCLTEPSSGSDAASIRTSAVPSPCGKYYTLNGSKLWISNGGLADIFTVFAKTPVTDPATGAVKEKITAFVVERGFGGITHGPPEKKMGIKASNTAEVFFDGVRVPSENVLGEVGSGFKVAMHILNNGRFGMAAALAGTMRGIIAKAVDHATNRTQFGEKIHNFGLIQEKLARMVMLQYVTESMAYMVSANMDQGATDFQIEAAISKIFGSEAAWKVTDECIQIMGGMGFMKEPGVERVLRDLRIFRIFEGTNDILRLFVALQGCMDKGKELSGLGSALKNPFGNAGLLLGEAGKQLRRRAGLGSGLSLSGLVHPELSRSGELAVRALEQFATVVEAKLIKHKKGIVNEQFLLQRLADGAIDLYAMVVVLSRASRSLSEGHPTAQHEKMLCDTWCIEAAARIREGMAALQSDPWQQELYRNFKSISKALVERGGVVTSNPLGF
# UniProt O15440: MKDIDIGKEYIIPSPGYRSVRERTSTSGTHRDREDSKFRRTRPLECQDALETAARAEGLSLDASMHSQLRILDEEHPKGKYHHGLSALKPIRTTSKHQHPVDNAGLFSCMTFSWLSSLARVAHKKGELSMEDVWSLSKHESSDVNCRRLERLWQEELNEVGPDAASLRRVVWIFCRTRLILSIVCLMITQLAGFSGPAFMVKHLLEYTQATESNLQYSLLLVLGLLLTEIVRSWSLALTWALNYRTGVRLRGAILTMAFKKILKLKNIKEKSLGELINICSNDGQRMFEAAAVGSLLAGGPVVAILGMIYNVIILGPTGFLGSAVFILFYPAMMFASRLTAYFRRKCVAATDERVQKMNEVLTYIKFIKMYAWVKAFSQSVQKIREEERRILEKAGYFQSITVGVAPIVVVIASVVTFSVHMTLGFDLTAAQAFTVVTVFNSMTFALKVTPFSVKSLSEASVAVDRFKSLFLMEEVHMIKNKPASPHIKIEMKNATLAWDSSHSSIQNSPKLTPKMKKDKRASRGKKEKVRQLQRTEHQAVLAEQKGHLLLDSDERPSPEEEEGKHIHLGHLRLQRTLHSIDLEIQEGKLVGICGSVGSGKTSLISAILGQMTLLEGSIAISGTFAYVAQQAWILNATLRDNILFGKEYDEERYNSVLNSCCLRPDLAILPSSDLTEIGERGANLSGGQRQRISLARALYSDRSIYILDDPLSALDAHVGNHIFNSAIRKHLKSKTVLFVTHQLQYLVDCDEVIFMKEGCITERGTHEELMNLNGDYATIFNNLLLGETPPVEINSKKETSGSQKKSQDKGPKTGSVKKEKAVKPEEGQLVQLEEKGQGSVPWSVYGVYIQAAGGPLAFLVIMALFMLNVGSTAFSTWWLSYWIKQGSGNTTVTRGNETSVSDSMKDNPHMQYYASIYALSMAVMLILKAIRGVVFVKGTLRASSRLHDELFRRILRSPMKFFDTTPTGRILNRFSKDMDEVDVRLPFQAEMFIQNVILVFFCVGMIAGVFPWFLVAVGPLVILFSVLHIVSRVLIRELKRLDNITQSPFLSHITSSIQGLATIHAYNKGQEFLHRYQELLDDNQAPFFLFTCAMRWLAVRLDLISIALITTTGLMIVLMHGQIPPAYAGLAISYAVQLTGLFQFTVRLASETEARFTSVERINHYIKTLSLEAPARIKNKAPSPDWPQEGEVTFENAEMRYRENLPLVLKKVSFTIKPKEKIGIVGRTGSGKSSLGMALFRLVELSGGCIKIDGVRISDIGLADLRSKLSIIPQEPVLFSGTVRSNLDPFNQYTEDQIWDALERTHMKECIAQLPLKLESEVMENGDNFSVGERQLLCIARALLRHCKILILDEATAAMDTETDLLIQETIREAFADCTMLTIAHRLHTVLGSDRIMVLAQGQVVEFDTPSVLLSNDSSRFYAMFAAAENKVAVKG
# Some of the results follow. The data scatter; read single values as rough.
# Compound: ClCC(=O)N[C@H]1CCCc2ccccc12
# Assay: log2 mean competition ratio of IA-DTB cysteine labelling (DMSO/compound) (log2 ratio); higher = stronger cysteine engagement by compound
# Details: 50 µM; treatment time: 4 h; cell line lysate: HEK293T
# Experimental: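 IA-DTB competitive cysteine chemoproteomics in HEK293T RIPA lysate. Lysates were treated with compound 29 or 30 at 50 or 200 µM for 4 h, then IA-DTB (500 µM, 1 h), trypsin-digested, NeutrAvidin-enriched and analysed by diaPASEF. Competition ratio = intensity DMSO / intensity compound (n=4 treated, n=64 DMSO); binding: mean log2 CR ≥ 1 and p ≤ 0.05 plus QC filters. Target is the cysteine site.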
row,Target,log2 mean competition ratio
1,ABR C201 (UniProt Q12979),0.558
2,ABCE1 C38,-0.253
3,AASS C765,-0.0191
4,ABITRAM C74 (UniProt Q9NX38),-0.0686
5,AAK1 C193,-0.0304
6,ABCB1 C431 (UniProt P08183),-0.235
7,AACS C15 (UniProt Q86V21),-0.128
8,ABHD5 C140 (UniProt Q8WTS1),-0.0333
9,ACAD8 C251 (UniProt Q9UKU7),-0.128
10,ACAP2 C10 (UniProt Q15057),-0.482
11,ABHD12 C52 (UniProt Q8N2K0),-0.074
12,ACACA C1297 (UniProt Q13085),-0.47
13,ACAT1 C196,0.2
14,ACAD8 C351 (UniProt Q9UKU7),-0.377
15,ABL2 C510 (UniProt P42684),-0.346
16,AAMP C208 (UniProt Q13685),-0.173
17,ABCB1 C1074 (UniProt P08183),0.29
18,AAMDC C122 (UniProt Q9H7C9),0.105
19,ACADVL C237 (UniProt P49748),0.197
20,ABCC5 C347 (UniProt O15440),-0.0538

# Same assay, conditions: 200 µM; treatment time: 4 h; cell line lysate: HEK293T
row,Target,log2 mean competition ratio
1,ABR C201 (UniProt Q12979),-0.0574
2,ABCE1 C38,-0.0142
3,AASS C765,0.0889
4,ABITRAM C74 (UniProt Q9NX38),-0.126
5,AAK1 C193,-0.124
6,ABCB1 C431 (UniProt P08183),-0.286
7,AACS C15 (UniProt Q86V21),-0.125
8,ABHD5 C140 (UniProt Q8WTS1),0.311
9,ACAD8 C251 (UniProt Q9UKU7),-0.0568
10,ACAP2 C10 (UniProt Q15057),0.636
11,ABHD12 C52 (UniProt Q8N2K0),0.196
12,ACACA C1297 (UniProt Q13085),0.0867
13,ACAT1 C196,-0.105
14,ACAD8 C351 (UniProt Q9UKU7),-0.143
15,ABL2 C510 (UniProt P42684),-0.329
16,AAMP C208 (UniProt Q13685),0.374
17,ABCB1 C1074 (UniProt P08183),0.248
18,AAMDC C122 (UniProt Q9H7C9),0.267
19,ACADVL C237 (UniProt P49748),-0.132
20,ABCC5 C347 (UniProt O15440),0.216
